Test results: PubChem BioAssay AID493027 (The Scripps Research Institute Molecular Screening Center, 2011)
“And” between values parts separate entries of the source, which are not always exact repeats. Equal entries are not always repeated. Among all 2,000 compounds or so, about 45 (2%) were called active.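 The calls were made as follows: active = inhibition above the screen-wide mean inhibition plus 3 SD (cut at about 44% in these data); inactive = the rest.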 The list shows a part of the results.

Protein sequences, listed by entry. Tags and fused reporters are not part of them. Lines headed by an entry give the natural chain unless they say otherwise; changes in a name come on top.
UniProt O60240: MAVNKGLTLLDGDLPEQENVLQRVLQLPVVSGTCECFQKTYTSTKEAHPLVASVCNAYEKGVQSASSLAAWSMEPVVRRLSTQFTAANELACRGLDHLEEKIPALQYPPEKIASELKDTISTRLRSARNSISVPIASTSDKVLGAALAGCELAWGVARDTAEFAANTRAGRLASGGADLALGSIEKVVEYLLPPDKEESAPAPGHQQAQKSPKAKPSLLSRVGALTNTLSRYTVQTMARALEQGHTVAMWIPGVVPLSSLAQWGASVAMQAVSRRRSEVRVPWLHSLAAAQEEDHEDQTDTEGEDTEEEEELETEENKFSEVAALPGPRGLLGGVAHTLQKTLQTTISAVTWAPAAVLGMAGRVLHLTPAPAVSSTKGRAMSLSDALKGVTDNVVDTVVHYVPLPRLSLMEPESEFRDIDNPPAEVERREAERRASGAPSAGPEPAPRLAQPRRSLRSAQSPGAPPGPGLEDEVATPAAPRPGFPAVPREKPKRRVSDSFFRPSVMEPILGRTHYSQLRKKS
UniProt Q8WTS1: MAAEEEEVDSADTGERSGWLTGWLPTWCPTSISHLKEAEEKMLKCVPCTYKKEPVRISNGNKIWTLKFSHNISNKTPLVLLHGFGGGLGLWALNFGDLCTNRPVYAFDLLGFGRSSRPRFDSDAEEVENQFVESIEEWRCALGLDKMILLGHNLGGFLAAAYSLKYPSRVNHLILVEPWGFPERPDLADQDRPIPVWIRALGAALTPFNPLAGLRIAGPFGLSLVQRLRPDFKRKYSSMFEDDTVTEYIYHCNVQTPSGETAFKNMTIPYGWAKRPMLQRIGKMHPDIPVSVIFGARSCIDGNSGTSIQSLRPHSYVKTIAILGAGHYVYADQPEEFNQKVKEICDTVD

What follows are compounds tested against Perilipin-1 (Homo sapiens) + 1-acylglycerol-3-phosphate O-acyltransferase ABHD5 (Homo sapiens) (UniProt O60240+Q8WTS1) (assay: blockers of ABHD5 binding to perilipin-1 – cell lysate, split luciferase complementation, luminescence, NIH validation set, pilot screen (AID 493027;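 also: 0% = DMSO wells with the 100% control not disclosed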)). Conditions: split G. princeps luciferase complementation, 4 h, at 7.9 µM, stronger effect = higher value.

| Structure (SMILES) | inhibition |
| --- | --- |
| COc1ccc(CN2CC3CC(C2)c2cccc(=O)n2C3)cc1OC (stereo not given) | inactive: -7.42% |
| COc1cccc(Oc2c(C)oc3cc(OC(=O)N(C)C)ccc3c2=O)c1 | inactive: 2.5% |
| COc1ccc(NC2=NCC(C)S2)cc1 (stereo not given) | inactive: -2.71% |
| c1ccc2c3c([nH]c2c1)CNCC3 | inactive: -3.37% |
| Cn1c(O)c(C=NCCc2c[nH]c3ccccc23)c(=O)n(C)c1=O | inactive: 3.68% |
| CN(C)[C@@H]1C(=O)C(C(N)=O)=C(O)[C@@]2(O)C(=O)C3=C(O)c4c(O)cccc4[C@@](C)(O)[C@H]3[C@H](O)[C@@H]12 | inactive: 12.9% |
| CCOc1ccc(N2C(=O)NC(=O)/C(=C\c3cc(OC)c(OC)cc3[N+](=O)[O-])C2=O)cc1 | active: 63.9% |
| CC(C)CCC1(CN2CCCC2=O)C(=O)NC(=O)NC1=O | inactive: 2.92% |
| CC(=O)[C@H]1CC[C@H]2[C@@H]3CC[C@H]4C[C@H](O)CC[C@]4(C)[C@H]3C(=O)C[C@]12C | inactive: -9% |
| CCN(CC)CCOC(=O)C(O)(c1ccccc1)c1ccccc1 | inactive: -3.64% |
| Cc1ccc2c(c1)C1CN(C)CCC1N2C(=O)Nc1cccc(Cl)c1 (stereo not given) | inactive: 2.94% |
| C[C@]12CC[C@@H]3c4ccc(O)c(O)c4CC[C@H]3[C@@H]1CC[C@@H]2O | inactive: 24.6% |
| O=C1C=Cc2ccccc2C1=O | inactive: 25.2% |
| C[C@]12CCC(=O)C(O)=C1CC[C@@H]1[C@@H]2CC[C@]2(C)C(=O)CC[C@@H]12 | inactive: -6.8% |
| CCCC(=O)OCC[N+](C)(C)C | inactive: -8.5% |
| CC(=O)c1ccc(-c2ccccc2)cc1 | inactive: 1.86% |
| O=Cc1cn(Cc2ccc(F)cc2)c2ccccc12 | inactive: -2.59% |
| CC(C)C(=O)Nc1ccc(S(=O)(=O)N2CC3CC(C2)c2cccc(=O)n2C3)cc1 (stereo not given) | inactive: -8.76% |
| c1ccc2c(c1)[nH]c1cnccc12 | inactive: -6.89% |
| COc1ccccc1CN1CCCCC1c1cccnc1 (stereo not given) | inactive: -6.44% |
| CC12CN3CC(C)(CN(C1)C3c1cccs1)C2=O (stereo not given) | inactive: -10.9% |
| Nc1ccc([As](=O)(O)O)cc1 | inactive: 2.9% |

| Structure (SMILES) | inhibition |
| --- | --- |
| CC(=O)Nc1cc([As](=O)(O)O)ccc1O | inactive: -10.2% |
| Cc1cc2c(C(C)C)c(O)c(O)c(C=O)c2c(O)c1-c1c(C)cc2c(C(C)C)c(O)c(O)c(C=O)c2c1O | active: 50.9% |
| Cc1cc(Cl)ccc1OC(C)C(=O)O (stereo not given) | inactive: -11.1% |
| O=c1[nH]c2ccccc2n1C1CCN(CCCC(c2ccc(F)cc2)c2ccc(F)cc2)CC1 | inactive: -6.24% |
| CC12CN3CC(C)(CN(C1)C3c1cccnc1)C2=O (stereo not given) | inactive: -4.1% |
| C[C@]12CCC(=O)C=C1CCC1C2CC[C@@]2(C)C1CC[C@@]2(O)CC#N (stereo not given in full) | inactive: -1.29% |
| CN[C@H](C)[C@H](O)c1ccccc1 | inactive: -1.69% |
| CCC1(c2ccccc2)C(=O)N(COC)C(=O)N(COC)C1=O | inactive: 3.14% |
| O=c1cccc2n1C[C@H]1C[C@@H]2CN2CCCC[C@@H]12 | inactive: -2.79% |
| O=C1CC[C@@]2(O)[C@H]3Cc4ccc(O)c5c4[C@@]2(CCN3CC2CC2)[C@H]1O5 | inactive: 1.93% |
| CN1C(=O)CN=C(c2ccc(Cl)cc2)c2cc(Cl)ccc21 | inactive: -6.72% |
| NCC1(c2ccc3c(c2)OCCO3)CCCC1 | inactive: -8.44% |
| c1ccc2c(c1)Nc1ccccc1S2 | inactive: -8.34% |
| CC(C)(C)C(O)C(Oc1ccc(Cl)cc1)n1cncn1 (stereo not given) | inactive: -13.8% |
| O=c1c2ccccc2[se]n1-c1ccccc1 | active: 90.3% |
| C[N+]1(C)C2CCC1CC(OC(=O)C(CO)c1ccccc1)C2 (stereo not given) | inactive: -8.6% |
| C[C@H]1CC[C@@]2(C)[C@@H](CC[C@@H]3[C@@H]2CC[C@]2(C)[C@@H](O)CC[C@@H]32)C1 | inactive: 0.49% |
| NCC(O)c1ccc(O)cc1 (stereo not given) | inactive: -12.3% |
| C[N+]1(C)[C@@H]2CC(OC(=O)[C@H](CO)c3ccccc3)C[C@H]1[C@@H]1O[C@@H]12 (stereo not given in full) | inactive: -5.12% and inactive: 3.91% |
| S=C1NCCN1 | inactive: -7.44% |
| c1ccc(Cn2ccnc2)cc1 | inactive: -3.99% |
| CC(C)C[C@H]1C(=O)N2CCCC2[C@]2(O)O[C@](NC(=O)[C@@H]3C=C4c5cccc6[nH]cc(c56)CC4N(C)C3)(C(C)C)C(=O)N12 (stereo not given in full) | inactive: 22.5% |

Structures listed so far with four or more nitrogen atoms:

| Structure (SMILES) | inhibition |
| --- | --- |
| Cn1c(O)c(C=NCCc2c[nH]c3ccccc23)c(=O)n(C)c1=O | inactive: 3.68% |
| CC(C)C[C@H]1C(=O)N2CCCC2[C@]2(O)O[C@](NC(=O)[C@@H]3C=C4c5cccc6[nH]cc(c56)CC4N(C)C3)(C(C)C)C(=O)N12 (stereo not given in full) | inactive: 22.5% |

Next part

| Structure (SMILES) | inhibition |
| --- | --- |
| CC(C)[C@H]1C(=O)N2CCC[C@H]2[C@]2(O)O[C@](NC(=O)[C@@H]3C=C4c5cccc6[nH]cc(c56)C[C@H]4N(C)C3)(C(C)C)C(=O)N12 | inactive: 13.9% |
| C[C@H]1CCCC(=O)CCCCCc2cc(O)cc(O)c2C(=O)O1 | inactive: 9.92% |
| Clc1ccc(COC(Cn2ccnc2)c2ccc(Cl)cc2Cl)cc1 (stereo not given) | inactive: -0.42% |
| CN1C[C@H](CNC(=O)OCc2ccccc2)C[C@@H]2c3cccc4c3c(cn4C)C[C@H]21 | inactive: -1.72% |
| O=C1NCCN2CCCC12 (stereo not given) | inactive: -3.07% |
| OCc1cnc[nH]1 | inactive: -15.7% |
| CCN(CC)C(=O)N[C@H]1C[C@@H]2c3cccc4[nH]cc(c34)C[C@H]2N(C)C1 | inactive: 3.53% |
| CC12CN3CC(c4ccccc4)(CN(C1)C31CCCCC1)C2=O | inactive: -0.95% |
| CC[C@@H](CO)NC(=O)[C@@H]1C=C2c3cccc4c3c(cn4C)C[C@H]2N(C)C1 | inactive: -5.9% |
| c1ccc2c(c1)OCC(C1=NCCN1)O2 (stereo not given) | inactive: -1.86% |
| CC[N+]1(C)CCCC(OC(=O)C(O)(c2ccccc2)c2ccccc2)C1 (stereo not given) | inactive: -9.01% |
| CCn1c(O)c(C(=O)CC2NCCc3ccccc32)c(=O)n(CC)c1=S (stereo not given) | inactive: -1.08% |
| C[N+]1(C)CCc2cc3c(cc2[C@H]1[C@@H]1OC(=O)c2c1ccc1c2OCO1)OCO3 | inactive: -4.9% and inactive: -13.2% |
| O=c1c2ccccc2nc(/C=C/c2ccc3c(c2)OCO3)n1-c1ccccc1 | inactive: 1.81% |
| C=C1CC[C@@]2(O)[C@H]3Cc4ccc(O)c5c4[C@@]2(CCN3CC2CC2)[C@H]1O5 | inactive: -0.92% |
| O=C(CCCN1CCC2(CC1)C(=O)NCN2c1ccccc1)c1ccc(F)cc1 | inactive: 4.67% |
| NCCc1c[nH]c2ccc(F)cc12 | inactive: -11.1% |
| C=CC1CN2CCC1CC2[C@@H](OC(=O)c1ccc(OC)cc1)c1ccnc2ccccc12 (stereo not given in full) | inactive: 1.67% |
| Cc1ccc(/C=C2/C(=O)NC(=O)N(C)C2=O)cc1 | inactive: -3.1% |
| c1cnc2c(c1)ccc1ncccc12 | inactive: -6.23% |
| CCOC(=O)c1cncn1C(C)c1ccccc1 (stereo not given) | inactive: 1.91% |
